{"source": "PubChem BioAssay AID1508600", "about": "(Functional Genomics Laboratory (NCATS/FGL), 2020)", "note": "Among all 53,000 sequences or so, about 3,700 (7%) were called active.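 Rule for the calls: active = gene knockdowns whose robust z-score for IL-1 alpha signal is at least 2 or at most -2, so actives lie on both sides; inactive = the rest.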 The list shows a part of the results."}
{"assay": "Components of the Cytosolic LPS Sensing Pathway: Gene Identification via Genome-wide siRNA Screen;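 note: robust z of the log signal after scaling to non-targeting control siRNA wells of the plate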", "conditions": "RAW264.7 macrophages, IL-1a HTRF, actives lie on both sides, screened at 100 nM (by protocol), cells primed 5 h with Pam3CSK4 first", "procedure,_shortened": "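RAW264.7; siRNA 100 nM final, RNAiMAX, 48h 37 degrees C; Pam3CSK4 5 h; LipidA + TransIT-TKO 24 h; IL-1a HTRF; CellTiter-Glo viability; robust z vs negative-control median.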"}
{"sequence": "GCAACAUUAGGAUUUAUAGTT against Gask1b", "z-score": "inactive: 0.0376"}
{"sequence": "GGAUGCUUUGAAAUAAAACTT against Sptssb", "z-score": "inactive: -0.744"}
{"sequence": "CCUAAGAGAUAAGAGCACCTT against Ppa2", "z-score": "inactive: 0.381"}
{"sequence": "GGAGUUCUUCUUCAAUGAGTT against Kcnd3", "z-score": "inactive: -1.3"}
{"sequence": "GGAAAUGUACAAGACUGAUTT against Anxa2", "z-score": "active: 2.29"}
{"sequence": "GGAAGUGCUUUGAAGAAGATT against Strip2", "z-score": "inactive: 1.21"}
{"sequence": "CGAUGUUACUAUAGGAUCUTT against A730036I17Rik", "z-score": "inactive: 0.33"}
{"sequence": "GGCAGCUGGAUCUCUUUGATT against Txndc17", "z-score": "inactive: -0.572"}
{"sequence": "GGAAAAUGUUUGGUGUAAUTT against Zfp85", "z-score": "inactive: -0.682"}
{"sequence": "GCAUACCAAUCACAGUCGATT against Dync2li1", "z-score": "active: -2.55"}
{"sequence": "CCCACAAAACAUGACCGCCTT against Sirt6", "z-score": "inactive: 1.26"}
{"sequence": "CCUCGACUCAUUCAGCUUGTT against Ogg1", "z-score": "inactive: 0.965"}
{"sequence": "GGAGCUGACAGACAUAGACTT against Ctnnbl1", "z-score": "inactive: -0.0159"}
{"sequence": "GAGGCCUUCCUUUUCUAUATT against Foxd2", "z-score": "inactive: 0.876"}
{"sequence": "CCAUAUCCGUAGGUAUAUCTT against Htr2a", "z-score": "inactive: 0.422"}
{"sequence": "GGCUCUAAAACUGUCAGACTT against Scp2d1", "z-score": "active: 2.25"}
{"sequence": "AUUAGAAGUAAACACGGGATT against Krtap19-1", "z-score": "inactive: 0.835"}
{"sequence": "GCAGACAGUAAAUUGGUAATT against Mab21l3", "z-score": "inactive: 0.915"}
{"sequence": "GGUCAAUUCAAGAUUGAUUTT against Macrod2", "z-score": "inactive: -0.116"}
{"sequence": "GGUGCGAGAUGCAUACAUCTT against Cct6b", "z-score": "inactive: 1.13"}
{"sequence": "GUGUCUGUUGGAAAGCAGATT against Tmem94", "z-score": "inactive: -1.4"}
{"sequence": "GGAACGACAAUAAAGCUUATT against Ninj1", "z-score": "inactive: 0.029"}
{"sequence": "GGAUCCCUUGAAAUACCAATT against Lrpap1", "z-score": "inactive: 0.0754"}
{"sequence": "GCGACUCAUUAAGGAUGUGTT against Actrt3", "z-score": "inactive: 0.225"}
{"sequence": "GGUUCCAGAGAAACAAAAGTT against Cox7a2", "z-score": "inactive: -0.305"}
{"sequence": "CCAGUUUGCACAAGUUUUCTT against Fyco1", "z-score": "inactive: 1.94"}
{"sequence": "GUGGAAAUGUACUUCUCUGTT against Olfr257", "z-score": "inactive: 0.435"}
{"sequence": "GCCUACAGGAGUGAGAUAATT against Arhgap33os", "z-score": "inactive: -1.36"}
{"sequence": "GGAUUUCCUUUUUAAAUCCTT against Zfp42", "z-score": "inactive: 0.939"}
{"sequence": "GGAUUAUCAUGGUUUGAUCTT against Elp4", "z-score": "inactive: 0.938"}
{"sequence": "GCGUAGCUGUAGUGAACCATT against Erh", "z-score": "inactive: 1.78"}
{"sequence": "GGUGUCAAAUUGGUUCGCUTT against Mkx", "z-score": "inactive: 0.619"}
{"sequence": "GCCAAUAGGUGAUUUUCUCTT against Vil1", "z-score": "inactive: 0.875"}
{"sequence": "CCUAAGCUUAUCUCAUAUUTT against 4930449I24Rik", "z-score": "inactive: -0.572"}
{"sequence": "CGUAUGGAGUCCAUUACUATT against Frmd4b", "z-score": "inactive: 0.341"}
{"sequence": "CCGUCUACAUAAAUUGCCCTT against Lrfn1", "z-score": "inactive: 0.298"}
{"sequence": "GGCCAAAAUGUUUGUUUGGTT against E030011O05Rik", "z-score": "inactive: 0.0784"}
{"sequence": "GGCUGGUUUAUUCUGGUAUTT against Stradb", "z-score": "inactive: 1.25"}
{"sequence": "GGUCAGUCGUAUGAAAUCCTT against Tfcp2l1", "z-score": "inactive: -0.501"}
{"sequence": "GCGAGGGAUAAUUUAUAGATT against Prkci", "z-score": "inactive: 1.19"}
{"sequence": "GAGCAAUAAGCUAGGGUGATT against Olfr1428", "z-score": "inactive: 0.239"}
{"sequence": "UUAUUGAGGCCGGGCUCAUTT against Kpna7", "z-score": "inactive: -1.52"}
{"sequence": "GGAUAGAAAAUCUGUGUUUTT against Trim60", "z-score": "inactive: -0.401"}
{"sequence": "GGGAGUGCGGAUUUCUUGUTT against Col9a2", "z-score": "inactive: 0.712"}
{"sequence": "GGAAUUGAGCAGGAAGAGGTT against Stx1b", "z-score": "inactive: 0.479"}
{"sequence": "GGAUUUAAAUCACCUGUAATT against Tdpoz1", "z-score": "inactive: -0.864"}
{"sequence": "GGAUGCAGAAACGCACGGUTT against Ltb4r1", "z-score": "inactive: 0.199"}
{"sequence": "CCACAAUCAUUAACAAGCUTT against Arl6", "z-score": "inactive: 0.389"}
{"sequence": "GGUGCUAGACAGAGCUUACTT against Gdf10", "z-score": "inactive: 1.5"}
{"sequence": "GGAAAGUGUUGUUUAAGAATT against Rint1", "z-score": "inactive: 0.823"}
{"sequence": "GCAUCAGAGAUAUUAUUUGTT against Ube2a", "z-score": "inactive: -0.363"}
{"sequence": "GCAUCAUCAGCUGGUUCGUTT against Agpat2", "z-score": "inactive: 0.589"}
{"sequence": "GGAUGAAGACAAUGAUAUUTT against Mecom", "z-score": "inactive: 0.038"}
{"sequence": "GGCAUUGCAUUUGAGGAUCTT against Slc35f5", "z-score": "inactive: 0.394"}
{"sequence": "GAUGAUCAACAAUAGAUGCTT against Sprr1b", "z-score": "inactive: -0.964"}
{"sequence": "GGACCAAUGUUUUCUUCCUTT against Gngt2", "z-score": "inactive: 0.773"}
{"sequence": "CGACCUGACUUUUCUUAGGTT against Dynlrb2", "z-score": "inactive: 0.855"}
{"sequence": "GGCUAUGCUUUUGUCCAGUTT against Raly", "z-score": "inactive: -0.392"}
{"sequence": "GGUCACAGAAACACCAUGUTT against Klhdc4", "z-score": "inactive: -1.25"}
{"sequence": "GGUCAUUUUCAGAAGGCUGTT against Lynx1", "z-score": "inactive: -1.22"}
{"sequence": "GCACCUCUACACUUUAGAUTT against Rack1", "z-score": "inactive: -0.0792"}
{"sequence": "GGUCACCACACGAUCUACATT against Slc4a4", "z-score": "active: 3.14"}
{"sequence": "GGGUCUCCUCUCUAAUCUATT against Bpifa2", "z-score": "inactive: -0.229"}
{"sequence": "GGUUUUUAGCAGUUGUAGUTT against Adam3", "z-score": "inactive: 0.339"}
{"sequence": "GGGUGAAAUCACCUCUCAGTT against Scn2b", "z-score": "inactive: -0.345"}
{"sequence": "GGAUGAAAUUGGAAAGGGCTT against Camkk2", "z-score": "inactive: -0.0472"}
{"sequence": "GGGAAGUUGUCUGACUAUUTT against Cyc1", "z-score": "inactive: 0.225"}
{"sequence": "GGCUCAAGCUAUGAAGAGATT against Gstm4", "z-score": "inactive: -0.195"}
{"sequence": "CCUGAGAACAUUUUAAUCATT against Tas2r116", "z-score": "inactive: -1.29"}
{"sequence": "GGAACACCACCUUAGAGAUTT against Hnrnpa2b1", "z-score": "inactive: 1.52"}
{"sequence": "GGAAGCUGAGAUUUAUUUUTT against Trpc4", "z-score": "inactive: 0.389"}
{"sequence": "ACUUCGUAAAAGAGCACAATT against Platr25", "z-score": "inactive: 1.02"}
{"sequence": "CCAUCUUACGAUUGCCUUCTT against Olfr362", "z-score": "inactive: -0.17"}
{"sequence": "GACAGUCUCAAAUUUAUCCTT against Lamtor2", "z-score": "inactive: -1.55"}
{"sequence": "GCCUGCAUAUGAAACAGUATT against Mturn", "z-score": "inactive: 0.347"}
{"sequence": "GGAGAUGCAAGGAAAAGUUTT against Faap24", "z-score": "inactive: 0.201"}
{"sequence": "CGGACAGAUACAAUAGCUATT against Zc3h4", "z-score": "inactive: -1.53"}
{"sequence": "GAACGGCUACAUCUGUUACTT against Bricd5", "z-score": "inactive: 0.529"}
{"sequence": "GGAAAAGUUCCAUCUAGUATT against Pole", "z-score": "inactive: -0.28"}
{"sequence": "GGCACCAAGUUUGACACGCTT against Zap70", "z-score": "inactive: 1.33"}
{"sequence": "GGAGAACAUCGUUUCCAGCTT against Nlgn1", "z-score": "inactive: 0.0831"}
{"sequence": "CCCUUUCCUAUUUGUUAUGTT against Serpinb3d", "z-score": "inactive: 0.754"}
{"sequence": "GGACUUUUUCUAGAAACGATT against Fbxo16", "z-score": "inactive: -1.17"}
{"sequence": "GGGCUUCCUAGUAUUCCACTT against Tuba4a", "z-score": "inactive: 1.55"}
{"sequence": "GGAUGUUAUUCAGUUUUCATT against BC051019", "z-score": "active: 2.37"}
{"sequence": "GGAAUUUGUCAUUCAGGAATT against Rad1", "z-score": "inactive: 0.209"}
{"sequence": "GCAAGUGGAGUUUAUUGAUTT against Dbndd2", "z-score": "inactive: -0.0399"}
{"sequence": "GGAGGAGUUAAAUAUGAUCTT against Cnnm4", "z-score": "inactive: 0.943"}
{"sequence": "CCUCCACUAUACGGUAAGUTT against Pla2g2c", "z-score": "active: -3.37"}
{"sequence": "GGCCAAUGCACUGUGUUACTT against Tinag", "z-score": "inactive: 1.25"}
{"sequence": "GGAUGUCCCACUGCUUUACTT against Gfod2", "z-score": "inactive: 0.386"}
{"sequence": "GCCUUGUUGUGUUGGCUUATT against Olfr1111", "z-score": "inactive: 0.549"}
{"sequence": "GGCACAAGGAACCUACGUUTT against Perp", "z-score": "inactive: -0.208"}
{"sequence": "GGUUAGCCAGCUGAAUCAATT against Cxxc4", "z-score": "inactive: 1.89"}
{"sequence": "GGGAUGAAGUAGUUUUAAUTT against Ggnbp2", "z-score": "inactive: -0.606"}
{"sequence": "GGUUGGAUUCCUGAUAUUATT against Moxd2", "z-score": "inactive: -0.22"}
{"sequence": "GGAGGACAUUGGUAAAAAUTT against Uba1", "z-score": "inactive: 1.54"}
{"sequence": "GGGAAGCAACAGUAAACAUTT against Ccdc82", "z-score": "inactive: -1.11"}
{"sequence": "GGUGGACUUGUUUAAAAAGTT against Senp5", "z-score": "inactive: 0.53"}
{"sequence": "GGGCUUUCUACGAACCAAGTT against Ovol1", "z-score": "inactive: -0.0783"}
{"sequence": "CGUGCUUUAUUGGAUCUGATT against Olah", "z-score": "inactive: -0.0911"}
{"sequence": "GGUCAAAACAAAAGGAGGGTT against Ncf4", "z-score": "inactive: 0.498"}
{"sequence": "GCGAGUACCCUAAAAACAUTT against Mmp14", "z-score": "inactive: -0.583"}
{"sequence": "GGCAAAAAAAACUGCUAUATT against Adgrg7", "z-score": "active: 3.36"}
{"sequence": "GUAGAAGAGUUUCCCACGGTT against Gm5431", "z-score": "inactive: -0.0238"}
{"sequence": "CCUAUGGUGCUCUUAUAAATT against Dpp6", "z-score": "inactive: -0.178"}
{"sequence": "GGCAUAUGCAGGUAUCUGUTT against Defb5", "z-score": "inactive: -0.127"}
